This is one part of the list.
Each target was assayed with c1cn2cc(-c3ccc4cn[nH]c4c3)nc(Nc3ccc(N4CCOCC4)cc3)c2n1 [entospletinib] (assay: log2 fold change, soluble protein after heating vs DMSO (PISA); higher = thermal stabilisation; K562 cells, 10 uM, 30 min; active = over 0.2 and 3.5 SD of the protein, either way, in both replicates (recomputed)).
How it was run: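 Quantification of soluble protein used TMTpro 16plex LC-MS/MS, with channel sums equalised. Samples were the supernatant after 21,000xg for 90 min of pooled aliquots from K562 cells (2×10^6 cells/mL) treated with 10 μM compound for 30 min, heated for 3 min over 48°C-58°C, and extracted in PBS with 0.5% NP-40 at 4°C. Values, from duplicates, describe thermal stability against control samples on a log2 fold-change scale.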

Sequences of proteins named here, by UniProt entry; tags and fusion partners are left off. A change or cut given only in a name is not applied to a line headed by its entry.
UniProt Q9UN37: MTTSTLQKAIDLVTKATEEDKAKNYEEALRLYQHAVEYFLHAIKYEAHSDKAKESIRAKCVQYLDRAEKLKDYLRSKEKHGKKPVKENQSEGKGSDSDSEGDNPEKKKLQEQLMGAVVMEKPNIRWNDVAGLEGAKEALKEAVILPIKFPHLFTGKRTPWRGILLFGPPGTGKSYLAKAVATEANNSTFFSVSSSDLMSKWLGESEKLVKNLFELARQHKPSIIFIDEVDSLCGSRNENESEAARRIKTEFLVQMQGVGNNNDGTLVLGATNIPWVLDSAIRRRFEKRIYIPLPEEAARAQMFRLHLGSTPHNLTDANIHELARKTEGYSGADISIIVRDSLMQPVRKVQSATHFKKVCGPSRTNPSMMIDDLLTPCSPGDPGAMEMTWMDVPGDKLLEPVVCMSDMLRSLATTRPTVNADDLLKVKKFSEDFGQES
UniProt Q96GC9: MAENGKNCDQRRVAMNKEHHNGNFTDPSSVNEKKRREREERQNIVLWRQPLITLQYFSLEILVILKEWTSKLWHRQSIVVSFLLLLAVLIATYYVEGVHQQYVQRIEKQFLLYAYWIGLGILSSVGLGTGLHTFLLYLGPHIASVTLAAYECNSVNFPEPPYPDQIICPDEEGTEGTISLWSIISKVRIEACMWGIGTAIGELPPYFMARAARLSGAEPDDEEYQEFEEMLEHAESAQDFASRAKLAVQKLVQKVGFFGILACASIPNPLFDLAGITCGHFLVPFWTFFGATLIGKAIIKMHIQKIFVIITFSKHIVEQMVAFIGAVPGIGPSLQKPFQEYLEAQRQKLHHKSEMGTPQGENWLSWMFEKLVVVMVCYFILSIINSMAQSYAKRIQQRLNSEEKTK
UniProt Q8TAF3: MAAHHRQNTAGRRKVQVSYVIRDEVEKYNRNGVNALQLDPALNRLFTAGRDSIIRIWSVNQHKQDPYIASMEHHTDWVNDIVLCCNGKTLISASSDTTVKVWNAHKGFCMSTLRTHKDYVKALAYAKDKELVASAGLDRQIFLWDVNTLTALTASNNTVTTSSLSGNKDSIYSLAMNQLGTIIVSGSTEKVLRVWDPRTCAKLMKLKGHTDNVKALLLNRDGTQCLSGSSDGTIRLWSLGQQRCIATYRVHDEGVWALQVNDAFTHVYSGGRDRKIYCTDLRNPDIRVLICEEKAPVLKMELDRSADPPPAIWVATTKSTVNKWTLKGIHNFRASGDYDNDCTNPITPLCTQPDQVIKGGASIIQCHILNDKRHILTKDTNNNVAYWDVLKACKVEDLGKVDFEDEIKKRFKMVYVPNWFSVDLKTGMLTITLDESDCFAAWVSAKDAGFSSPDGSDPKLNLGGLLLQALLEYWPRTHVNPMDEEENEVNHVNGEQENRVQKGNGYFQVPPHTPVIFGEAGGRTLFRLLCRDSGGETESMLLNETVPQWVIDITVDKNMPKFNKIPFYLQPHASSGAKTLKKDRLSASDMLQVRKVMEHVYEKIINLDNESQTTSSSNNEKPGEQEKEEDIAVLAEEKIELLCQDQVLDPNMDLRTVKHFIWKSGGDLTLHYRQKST
UniProt Q4G0F5, whole entry, looked up: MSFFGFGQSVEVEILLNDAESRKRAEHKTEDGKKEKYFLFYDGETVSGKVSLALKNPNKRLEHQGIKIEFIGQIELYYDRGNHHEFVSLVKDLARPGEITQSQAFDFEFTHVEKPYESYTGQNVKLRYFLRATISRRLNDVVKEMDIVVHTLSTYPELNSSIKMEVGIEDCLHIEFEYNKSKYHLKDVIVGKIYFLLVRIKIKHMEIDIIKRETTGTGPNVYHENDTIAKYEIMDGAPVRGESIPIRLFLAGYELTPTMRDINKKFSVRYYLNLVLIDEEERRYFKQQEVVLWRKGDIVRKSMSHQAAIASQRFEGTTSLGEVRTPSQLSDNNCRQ
UniProt Q9H9H4: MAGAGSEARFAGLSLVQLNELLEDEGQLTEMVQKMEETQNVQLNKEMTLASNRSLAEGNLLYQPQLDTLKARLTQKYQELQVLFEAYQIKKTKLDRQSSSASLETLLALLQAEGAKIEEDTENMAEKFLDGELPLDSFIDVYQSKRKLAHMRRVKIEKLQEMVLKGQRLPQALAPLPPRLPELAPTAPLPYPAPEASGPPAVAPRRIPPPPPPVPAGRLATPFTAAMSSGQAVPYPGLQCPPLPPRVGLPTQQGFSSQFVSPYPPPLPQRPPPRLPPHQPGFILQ
UniProt Q9H7M9, whole entry, looked up: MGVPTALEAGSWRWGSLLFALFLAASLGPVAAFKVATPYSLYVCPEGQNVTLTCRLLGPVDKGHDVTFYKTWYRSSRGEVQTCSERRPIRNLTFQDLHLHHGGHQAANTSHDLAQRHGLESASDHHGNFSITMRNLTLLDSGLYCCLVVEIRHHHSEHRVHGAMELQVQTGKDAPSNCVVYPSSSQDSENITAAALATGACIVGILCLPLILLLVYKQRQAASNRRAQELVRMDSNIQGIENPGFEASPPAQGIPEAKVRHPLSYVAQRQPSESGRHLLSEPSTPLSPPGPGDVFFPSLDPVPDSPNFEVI
UniProt Q8IWB7: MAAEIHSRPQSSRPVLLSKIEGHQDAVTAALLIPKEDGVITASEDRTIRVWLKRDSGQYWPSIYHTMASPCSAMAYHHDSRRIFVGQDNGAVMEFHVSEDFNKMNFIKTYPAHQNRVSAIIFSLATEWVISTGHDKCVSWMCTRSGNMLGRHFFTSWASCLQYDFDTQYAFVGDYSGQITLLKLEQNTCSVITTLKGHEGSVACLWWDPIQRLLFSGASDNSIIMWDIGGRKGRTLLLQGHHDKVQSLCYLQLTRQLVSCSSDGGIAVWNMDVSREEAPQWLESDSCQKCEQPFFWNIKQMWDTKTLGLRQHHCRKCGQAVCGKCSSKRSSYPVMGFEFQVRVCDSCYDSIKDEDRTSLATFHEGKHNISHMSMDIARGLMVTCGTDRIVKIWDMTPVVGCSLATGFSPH
UniProt Q2M389: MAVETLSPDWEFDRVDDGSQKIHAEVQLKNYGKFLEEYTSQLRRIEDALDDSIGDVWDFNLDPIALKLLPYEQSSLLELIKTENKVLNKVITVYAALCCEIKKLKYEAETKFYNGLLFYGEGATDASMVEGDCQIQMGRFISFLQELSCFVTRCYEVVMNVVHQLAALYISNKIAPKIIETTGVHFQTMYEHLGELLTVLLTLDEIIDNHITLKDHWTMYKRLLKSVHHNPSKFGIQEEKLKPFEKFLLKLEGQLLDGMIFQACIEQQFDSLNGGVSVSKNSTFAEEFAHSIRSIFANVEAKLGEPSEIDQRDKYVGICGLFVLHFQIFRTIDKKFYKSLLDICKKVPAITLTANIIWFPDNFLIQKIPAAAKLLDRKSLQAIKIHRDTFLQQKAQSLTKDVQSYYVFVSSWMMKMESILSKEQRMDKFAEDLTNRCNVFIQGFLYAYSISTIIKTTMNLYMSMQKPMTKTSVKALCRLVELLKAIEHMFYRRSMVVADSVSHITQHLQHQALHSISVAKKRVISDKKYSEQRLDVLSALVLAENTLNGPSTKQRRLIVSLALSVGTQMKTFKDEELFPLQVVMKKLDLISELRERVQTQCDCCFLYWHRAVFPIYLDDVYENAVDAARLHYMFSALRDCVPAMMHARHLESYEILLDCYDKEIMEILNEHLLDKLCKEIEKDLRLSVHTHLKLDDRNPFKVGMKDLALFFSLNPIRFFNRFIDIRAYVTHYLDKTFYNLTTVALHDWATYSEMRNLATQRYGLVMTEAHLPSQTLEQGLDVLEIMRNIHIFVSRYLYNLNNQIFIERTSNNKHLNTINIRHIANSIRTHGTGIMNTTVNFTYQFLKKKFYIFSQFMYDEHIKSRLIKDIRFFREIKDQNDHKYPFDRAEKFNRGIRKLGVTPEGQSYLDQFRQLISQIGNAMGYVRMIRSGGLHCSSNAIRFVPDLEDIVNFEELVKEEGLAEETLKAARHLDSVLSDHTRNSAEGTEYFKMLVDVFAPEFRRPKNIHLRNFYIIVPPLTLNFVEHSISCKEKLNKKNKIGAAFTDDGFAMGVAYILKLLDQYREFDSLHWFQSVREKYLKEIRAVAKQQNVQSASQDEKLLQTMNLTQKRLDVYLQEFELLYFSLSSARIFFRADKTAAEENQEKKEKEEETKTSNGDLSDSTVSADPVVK
UniProt Q9Y484: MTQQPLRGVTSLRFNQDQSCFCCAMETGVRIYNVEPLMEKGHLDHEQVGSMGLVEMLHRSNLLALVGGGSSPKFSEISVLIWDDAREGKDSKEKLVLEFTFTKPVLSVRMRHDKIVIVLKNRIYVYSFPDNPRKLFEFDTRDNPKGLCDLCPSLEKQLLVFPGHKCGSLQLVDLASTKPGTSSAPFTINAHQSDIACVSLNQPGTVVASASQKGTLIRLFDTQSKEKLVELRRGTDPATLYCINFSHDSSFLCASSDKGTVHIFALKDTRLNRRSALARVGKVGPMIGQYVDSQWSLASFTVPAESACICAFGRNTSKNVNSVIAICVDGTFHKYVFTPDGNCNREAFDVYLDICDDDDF
UniProt O00401, whole entry, looked up: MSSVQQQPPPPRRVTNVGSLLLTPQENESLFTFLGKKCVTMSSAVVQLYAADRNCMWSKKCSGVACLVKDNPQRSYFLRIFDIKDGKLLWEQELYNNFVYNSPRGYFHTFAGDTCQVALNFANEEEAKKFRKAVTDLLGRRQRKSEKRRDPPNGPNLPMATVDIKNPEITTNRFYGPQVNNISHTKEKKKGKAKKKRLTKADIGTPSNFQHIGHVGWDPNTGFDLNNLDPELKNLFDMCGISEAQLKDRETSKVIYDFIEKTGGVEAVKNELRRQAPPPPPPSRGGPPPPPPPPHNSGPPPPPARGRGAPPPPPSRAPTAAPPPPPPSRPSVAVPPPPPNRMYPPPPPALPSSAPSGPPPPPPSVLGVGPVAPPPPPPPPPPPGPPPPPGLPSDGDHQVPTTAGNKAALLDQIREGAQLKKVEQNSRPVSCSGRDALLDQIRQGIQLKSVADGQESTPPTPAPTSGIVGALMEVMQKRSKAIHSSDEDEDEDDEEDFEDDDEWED
UniProt Q9Y4P8: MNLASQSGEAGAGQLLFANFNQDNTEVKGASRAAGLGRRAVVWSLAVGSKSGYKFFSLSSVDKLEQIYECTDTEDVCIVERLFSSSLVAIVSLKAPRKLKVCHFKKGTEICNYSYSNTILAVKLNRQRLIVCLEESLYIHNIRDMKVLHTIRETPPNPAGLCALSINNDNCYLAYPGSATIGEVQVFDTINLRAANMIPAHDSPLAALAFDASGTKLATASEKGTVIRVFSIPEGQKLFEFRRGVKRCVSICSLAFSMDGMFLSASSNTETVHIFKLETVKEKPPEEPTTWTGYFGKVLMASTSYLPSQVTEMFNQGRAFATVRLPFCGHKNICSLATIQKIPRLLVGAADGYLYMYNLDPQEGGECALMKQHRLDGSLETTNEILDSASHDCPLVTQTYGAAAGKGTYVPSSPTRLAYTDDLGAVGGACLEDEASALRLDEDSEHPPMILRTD
UniProt Q8IV63: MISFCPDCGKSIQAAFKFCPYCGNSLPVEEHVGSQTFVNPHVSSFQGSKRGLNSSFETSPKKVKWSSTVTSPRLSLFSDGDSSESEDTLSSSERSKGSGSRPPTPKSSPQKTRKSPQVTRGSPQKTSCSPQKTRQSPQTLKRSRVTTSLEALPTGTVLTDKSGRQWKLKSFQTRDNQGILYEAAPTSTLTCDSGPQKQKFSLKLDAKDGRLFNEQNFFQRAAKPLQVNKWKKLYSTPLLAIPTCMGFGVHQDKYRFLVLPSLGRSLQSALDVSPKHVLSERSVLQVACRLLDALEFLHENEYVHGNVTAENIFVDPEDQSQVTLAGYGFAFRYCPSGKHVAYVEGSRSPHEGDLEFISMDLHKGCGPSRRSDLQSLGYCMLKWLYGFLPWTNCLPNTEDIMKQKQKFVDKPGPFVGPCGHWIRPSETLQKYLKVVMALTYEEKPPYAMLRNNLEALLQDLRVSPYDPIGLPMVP
UniProt Q6RFH5: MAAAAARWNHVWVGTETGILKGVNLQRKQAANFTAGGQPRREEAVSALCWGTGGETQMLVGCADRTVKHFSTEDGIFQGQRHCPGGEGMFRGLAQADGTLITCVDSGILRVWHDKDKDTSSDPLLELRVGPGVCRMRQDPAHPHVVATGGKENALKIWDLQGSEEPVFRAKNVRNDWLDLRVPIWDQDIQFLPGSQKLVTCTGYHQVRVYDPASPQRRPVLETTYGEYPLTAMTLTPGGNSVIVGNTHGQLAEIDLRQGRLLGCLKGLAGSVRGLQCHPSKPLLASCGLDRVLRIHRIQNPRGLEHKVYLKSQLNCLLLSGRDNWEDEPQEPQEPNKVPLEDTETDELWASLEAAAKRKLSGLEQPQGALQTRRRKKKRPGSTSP

log2 fold change, inactive:
VPS54 (UniProt Q9P1Q0) 0.098
VPS4A (UniProt Q9UN37) -0.011
VMP1 (UniProt Q96GC9) 0.027
WDR48 (UniProt Q8TAF3) 0
WTAP (UniProt Q15007) 0.014
VPS26B (UniProt Q4G0F5) -0.016
VCX3B (UniProt Q9H321) -0.008
WDR59 (UniProt Q6PJI9) 0.117
WDR45B (UniProt Q5MNZ6) -0.095
VPS37B (UniProt Q9H9H4) 0.032
VSIR (UniProt Q9H7M9) -0.023
VIM (UniProt P08670) 0.158
VPS26C (UniProt O14972) -0.002
WDR53 (UniProt Q7Z5U6) -0.112
WDFY1 (UniProt Q8IWB7) 0.012
WASHC4 (UniProt Q2M389) 0.088
WIPF3 (UniProt A6NGB9) -0.001
WDR45 (UniProt Q9Y484) -0.046
WASL (UniProt O00401) 0.027
WIPI2 (UniProt Q9Y4P8) -0.073
VPS35, A0A1W2PP10 -0.08
VRK3 (UniProt Q8IV63) -0.041
VPS35 (UniProt Q96QK1) -0.03
WDR74 (UniProt Q6RFH5) 0.029
WDR20 isoform 7 (UniProt Q8TBZ3) 0.036
WDSUB1 (UniProt Q8N9V3) -0.011
WDR24 (UniProt Q96S15) 0.055
VPS45 (UniProt Q9NRW7) 0.06
WDTC1 (UniProt Q8N5D0) -0.04

A portion taken from the entries so far, for reference:
log2 fold change, inactive:
WTAP (UniProt Q15007) 0.014
VPS26B (UniProt Q4G0F5) -0.016
VCX3B (UniProt Q9H321) -0.008
WDR59 (UniProt Q6PJI9) 0.117
WDR45B (UniProt Q5MNZ6) -0.095
VPS37B (UniProt Q9H9H4) 0.032
VSIR (UniProt Q9H7M9) -0.023
VIM (UniProt P08670) 0.158

— the supplement of paper PMC10849652
